Consider 8 molecules from PMC7118115, “Tumor-penetrating peptide for systemic targeting of Tenascin-C” (Scientific Reports, 2020).

These are yes or no findings as the source states them, for the method shown. For part of these data: Binding can be weak; no strength is given.

One assay deals with fibronectin EDB-domain. Put plainly: phage binding assay; individual T7 phage clones incubated with Ni-NTA magnetic beads coated with hexahistidine-tagged TNC-C (30 ug/10 ul beads) or NRP-1-coated beads, room temperature 1 h, washing buffer PBS with 1% BSA and 0.1% Tween-20, elution with 500 mM imidazole and 0.1% NP40, phage titered; binding as fold heptaglycine (G7) control phage or percent of parental PL3 phage; only the target purified.
Turning to AGRGRLVR [T7 phage displaying PL3 peptide (AGRGRLVR)], the binding entry is on record as “no binding”.

The target of a further assay is recombinant human Tenascin-C FnIII C domain (TNC-C), hexahistidine-tagged (human). The description is as above.
In the case of AARGRLVR [T7 phage displaying PL3 with alanine for the first glycine (position 2)], the binding entry was “binds”. The same measure, in the same setting: the entry for AGRGRLAR [T7 phage displaying PL3 with alanine for valine (position 7)] is “binds”. Same read-out and setting: the entry for AGRGALVR [T7 phage displaying PL3 with alanine for the second arginine (position 5)] is “binds”; for AGAGRLVR [T7 phage displaying PL3 with alanine for the first arginine (position 3)] it is “binds”; for AGRARLVR [T7 phage displaying PL3 with alanine for the second glycine (position 4)] it is “binds”. On the same count and under the same terms, the entry for AGRGRAVR [T7 phage displaying PL3 with alanine for leucine (position 6)] is “binds”; for AGRGRLVA [T7 phage displaying terminal R > A PL3-derivative peptide (position 8)] it is “binds”; for AGRGRLVR [T7 phage displaying PL3 peptide (AGRGRLVR)] it is “binds”.
